Test results reported in PMC3184067.
No constants are given. Whether binding was seen depends on the method and setting. Binding seen in cells or lysates may run through a third protein. Some results given as binding are weak or reduced against the parent protein; the word gives no strength.

Target: T1, Myristoylated Alanine-Rich C Kinase Substrate (MARCKS) protein (human (endogenous in NHBE)) (UniProt P29966)
T1 sequence: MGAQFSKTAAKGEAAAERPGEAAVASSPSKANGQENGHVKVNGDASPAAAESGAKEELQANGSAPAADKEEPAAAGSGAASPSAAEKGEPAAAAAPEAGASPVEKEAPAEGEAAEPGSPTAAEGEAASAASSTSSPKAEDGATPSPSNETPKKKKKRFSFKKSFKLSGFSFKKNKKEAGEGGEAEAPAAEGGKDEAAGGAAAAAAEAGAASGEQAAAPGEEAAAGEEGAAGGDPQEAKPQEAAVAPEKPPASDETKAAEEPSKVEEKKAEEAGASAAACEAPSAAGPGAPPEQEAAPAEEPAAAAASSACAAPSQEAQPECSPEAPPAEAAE
Experiment: co-IP; MARCKS immunoprecipitated from NHBE whole cell lysates (antibody overnight at 4°C, Protein G Dynal beads 3 hr, washed three times with cold PBS); blots probed with anti-CSP, anti-HSP70 and anti-hCLCA1; whole molecule rabbit IgG as negative control

B1: Cysteine string protein (CSP) (protein, UniProt Q9H3Z4 1-198)
chain: MADQRQRSLSTSGESLYHVLGLDKNATSDDIKKSYRKLALKYHPDKNPDNPEAADKFKEINNAHAILTDATKRNIYDKYGSLGLYVAEQFGEENVNTYFVLSSWWAKALFVFCGLLTCCYCCCCLCCCFNCCCGKCKPKAPEGEETEFYVSPEDLEAQLQSDEREATDTPIVIQPASATETTQLTADSHPSYHTDGFN
Question: For B1, which binding is on record?
Answer: binds

B2: calcium activated chloride channel hCLCA1 (the human ortholog of murine Gob-5) (protein, UniProt A8K7I4 22-914)
chain: NSLIQLNNNGYEGIVVAIDPNVPEDETLIQQIKDMVTQASLYLLEATGKRFYFKNVAILIPETWKTKADYVRPKLETYKNADVLVAESTPPGNDEPYTEQMGNCGEKGERIHLTPDFIAGKKLAEYGPQGRAFVHEWAHLRWGVFDEYNNDEKFYLSNGRIQAVRCSAGITGTNVVKKCQGGSCYTKRCTFNKVTGLYEKGCEFVLQSRQTEKASIMFAQHVDSIVEFCTEQNHNKEAPNKQNQKCNLRSTWEVIRDSEDFKKTTPMTTQPPNPTFSLLQIGQRIVCLVLDKSGSMATGNRLNRLNQAGQLFLLQTVELGSWVGMVTFDSAAHVQNELIQINSGSDRDTLAKRLPAAASGGTSICSGLRSAFTVIRKKYPTDGSEIVLLTDGEDNTISGCFNEVKQSGAIIHTVALGPSAAQELEELSKMTGGLQTYASDQVQNNGLIDAFGALSSGNGAVSQRSIQLESKGLTLQNSQWMNGTVIVDSTVGKDTLFLITWTMQPPQILLWDPSGQKQGGFVVDKNTKMAYLQIPGIAKVGTWKYSLQASSQTLTLTVTSRASNATLPPITVTSKTNKDTSKFPSPLVVYANIRQGASPILRASVTALIESVNGKTVTLELLDNGAGADATKDDGVYSRYFTTYDTNGRYSVKVRALGGVNAARRRVIPQQSGALYIPGWIENDEIQWNPPRPEINKDDVQHKQVCFSRTSSGGSFVASDVPNAPIPDLFPPGQITDLKAEIHGGSLINLTWTAPGDDYDHGTAHKYIIRISTSILDLRDKFNESLQVNTTALIPKEANSEEVFLFKPENITFENGTDLFIAIQAVDKVDLKSEISNIARVSLFIPPQTPPETPSPDETSAPCPNIHINSTIPGIHILKIMWKWIGELQLSIA
Question: Which binding does the source give for B2 here?
Answer: binds
